PubChem BioAssay AID504444 (National Center for Advancing Translational Sciences (NCATS), 2011)
Out of some 360,000 compounds screened, about 7,500 (2.1%) were called active. Inconclusive results, whose numbers are uncertain, are shown with a selection of clear calls. Calls come from the whole dose curve; as a rule, active = well fitted inhibition curve with a large enough effect; inconclusive = small, poorly fitted or top-dose-only effect, or effect the other way; inactive = flat fitted curve, though single readings scatter. Potencies of inconclusive entries are doubtful fits and often do not repeat.

assay: Nrf2 qHTS screen for inhibitors; conditions: A549 ARE-Fluc reporter, luciferase luminescence, 18-24 h; series mostly up to 46 µM; note: nearly all actives have a fitted effect of over 60% in size
How it was run: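 A549 ARE_Fluc cells (5000/well, 5% FBS OPTI-MEM) pre-incubated 2 h, then treated with compounds 18-24 h at 37C/5% CO2 in concentration-response. CellTiter-Fluor viability read first; BugLite luciferase luminescence after 15 min at room temperature gives Nrf2 activity.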
Potency is the fitted concentration of half-maximal effect.

Compound	Potency
CC1(c2nnc(Cc3ccccc3)o2)CC(c2ccc(OC(F)(F)F)cc2)=NO1 (stereo not drawn)	active: 23.1 µM
CC(C)NS(=O)(=O)c1ccc(OCC(=O)Nc2ccccc2F)cc1	inactive
CC(=O)c1c(C)[nH]c(C(=O)NCCc2c[nH]c3ccccc23)c1C	inconclusive: 10.3 µM [activator, partial curve]
CCN(CC)C(=O)C1CCN(c2ncnc3c2cnn3-c2ccc(C)cc2C)CC1	inconclusive: 6.51 µM [falling, single point]
O=C1C=C(c2cc(C(F)(F)F)cc(C(F)(F)F)c2)C[C@@H](c2ccc3c(c2)OCO3)C1	inconclusive: 32.6 µM [falling, single point]
Fc1ccc(CNC(=S)Nc2ccc(Cl)cc2)cc1	inconclusive: 29.1 µM [falling, single point]
COc1ccc(-n2cc(-c3ccc4c(c3)OCO4)n(CC(=O)Nc3cccc(C)c3C)c2=O)c(OC)c1	active: 13 µM
Cc1cc(N2CCCCC2)nc(NCc2ccccc2)n1	inconclusive: 20.6 µM [falling, single point]
CC(C)CC(=O)c1c[nH]c(C(=O)NCc2cccnc2)c1	inconclusive: 20.6 µM [falling, partial curve, poor fit]
CCOC(=O)C1=C(O)CSC1=Nc1ccccc1	inconclusive: 1.46 µM [activator, full curve, poor fit]
C[C@H](CO)N1C[C@H](C)[C@@H](CN(C)S(C)(=O)=O)Oc2c(NC(=O)Nc3ccc(C(F)(F)F)cc3)cccc2C1=O	inconclusive: 14.6 µM [activator, single point]
COC(=O)c1cc2c(s1)-c1ccc(OC)cc1CC2	inconclusive: 29.1 µM [activator, single point]
CCOc1ccc(C(C(=O)NC2CCCC2)N(C(=O)c2snc(C(N)=O)c2N)C2CCCC2)cc1 (stereo not drawn)	inconclusive: 29.1 µM [falling, partial curve, poor fit]
COCCNC(=O)c1cccc(OC2CCN(Cc3cccc(SC)c3)CC2)c1	inconclusive: 23.1 µM [falling, single point]
COc1ccc(-c2nc3ccccc3c(=O)n2NC(=O)c2cccnc2Cl)cc1OC	inactive
Cc1ccc(NC(=O)CNc2ccc(Cl)c(Cl)c2)cc1S(=O)(=O)N(C)C	active: 11.6 µM
NC(=O)N=Nc1c2[nH]c3ccccc3nc-2c2ccccc12	active: 10.3 µM
COc1ccc(CSc2nc(C)cc(C)c2S(C)(=O)=O)cc1	inconclusive: 13 µM [falling, partial curve]
O=C(COCc1cc(-c2ccc(F)cc2)on1)Nc1cc(Cl)ccc1O	inconclusive: 18.4 µM [activator, partial curve, poor fit]
CCNc1nc(NCC)n2c(SCC(=O)Nc3cccc(Cl)c3)nnc2n1	inconclusive: 20.6 µM [falling, partial curve, poor fit]
C=CCC1(CC=C)CCCN1C(=O)c1cc(COc2cccc(C(F)(F)F)c2)on1	inconclusive: 16.4 µM [falling, single point]

Looked up by structure from above:
Compound	Potency
O=C1C=C(c2cc(C(F)(F)F)cc(C(F)(F)F)c2)C[C@@H](c2ccc3c(c2)OCO3)C1	inconclusive: 32.6 µM [falling, single point]
CC(C)CC(=O)c1c[nH]c(C(=O)NCc2cccnc2)c1	inconclusive: 20.6 µM [falling, partial curve, poor fit]

Two successive compounds out of the list so far, for reference:
Compound	Potency
O=C1C=C(c2cc(C(F)(F)F)cc(C(F)(F)F)c2)C[C@@H](c2ccc3c(c2)OCO3)C1	inconclusive: 32.6 µM [falling, single point]
Fc1ccc(CNC(=S)Nc2ccc(Cl)cc2)cc1	inconclusive: 29.1 µM [falling, single point]

(continued)

Compound	Potency
Cc1ccccc1-n1nc(CO)c(C(=O)NCC(c2ccccc2)c2ccccc2)n1	inconclusive: 29.1 µM [falling, single point]
CCCc1n[nH]c2c1/C(=N/O)CC(c1ccccc1)C2 (stereo not drawn)	inconclusive: 18.4 µM [falling, partial curve]
Cc1ccc(NC(=S)NC(=O)c2ccc(Br)o2)c(C)c1	inconclusive: 16.4 µM [activator, partial curve]
Cc1cc(C)nc(SCC2COc3ccccc3O2)n1 (stereo not drawn)	inconclusive: 29.1 µM [activator, single point]
Cc1cccc(NC(=O)c2c(O)c3ccccc3n(C)c2=O)c1	inconclusive: 2.91 µM [activator, full curve]
Cc1ncsc1CCSc1nc2ccccc2c(=O)n1C	inconclusive: 32.6 µM [falling, single point]
S=c1[nH]c2cc(Br)cnc2[nH]1	inactive
Cc1cc(/C=N/n2c(COc3ccccc3C)nc3ccccc3c2=O)c(O)c([N+](=O)[O-])c1	active: 8.2 µM
COC(=O)c1ccc2c(c1)NC(=O)C(N1CCCCC1)S2 (stereo not drawn)	inconclusive: 20.6 µM [falling, single point]
COc1ccc(/C=C/C(=O)NC(=S)N2CCN(c3ccccc3OC)CC2)cc1	inconclusive: 9.2 µM [activator, partial curve]
CC(C)CCNC(=O)C(c1ccc(O)cc1)N(Cc1cccs1)C(=O)C1COc2ccccc2O1 (stereo not drawn)	inconclusive: 20.6 µM [falling, partial curve]
O=C(NC1CCN(Cc2ccccc2)CC1)c1cccc(S(=O)(=O)Nc2ccc(SC(F)F)cc2)c1	active: 16.4 µM
CC(C)C(=O)Nc1ccc2nn(-c3ccccc3)nc2c1	inconclusive: 0.206 µM [activator, full curve]
Cc1ccnc(NC(=O)CCC(=O)N(CC(=O)NCc2ccccc2)Cc2ccc(F)cc2)c1	inconclusive: 29.1 µM [activator, single point]
CC(C)[C@@H]1CC[C@@H](C)C[C@H]1OC(=O)C[n+]1cc(-c2ccc(Cl)cc2)n2c1CCCCC2	inconclusive: 29.1 µM [falling, single point]
O=C(CSc1ccccn1)N1CCN(c2ncc(C(F)(F)F)cc2Cl)CC1	inconclusive: 29.1 µM [falling, single point]
CC(=O)c1ccc(N2CCN(C(=O)CCc3nnc4n(C)c(=O)c5sccc5n34)CC2)cc1	inactive
Cc1ccc(NS(=O)(=O)c2cc3[nH]c(=O)c(=O)[nH]c3cc2C)cc1N(C)C	inconclusive: 4.11 µM [activator, full curve, poor fit]
Cc1ccc(CNC(=O)CSc2ncc3c(n2)-c2ccc(Cl)cc2N(Cc2ccccc2)S3(=O)=O)cc1	inconclusive: 16.4 µM [activator, partial curve, poor fit]
Cc1ccc(NC(=O)CCCn2c(=O)c3cccn3c3cccnc32)cc1C	inconclusive: 14.6 µM [falling, partial curve]
CCCc1nc2oc3cc(OC)ccc3c(=O)c2c(=O)n1Cc1ccco1	inconclusive: 13 µM [falling, partial curve, poor fit]

Compound	Potency
CCOc1ccc(S(=O)(=O)c2c(C(=O)c3ccc(C)cc3)cnc3cc4c(cc23)OCCO4)cc1	inactive
Cn1c(=O)c2c(nc(NCCc3ccccc3)n2Cc2ccc(Cl)cc2)n(C)c1=O	inconclusive: 29.1 µM [falling, single point]
CCC(CC)C(=O)Nc1c2c(nn1-c1ccc(OC)cc1)CS(=O)C2 (stereo not drawn)	inconclusive: 2.06 µM [activator, partial curve]
CCCCCC(=O)Nc1cccc(C2=NOC3(C2)C[C@@H](C(N)=O)N(C(=O)c2cc([N+](=O)[O-])cc([N+](=O)[O-])c2C)C3)c1 (stereo partly drawn)	inactive
COC(=O)[C@H](CCSC)NC(=O)Cn1cnc(C(=O)Nc2ccc(C)c(C)c2)n1	inconclusive: 25.9 µM [falling, single point]
C=CCNC(=S)Nc1ccccc1-c1nnc2n1CCCCC2	inconclusive: 23.1 µM [activator, single point]
Cc1cc(=O)oc2cc(OCC(=O)OCC(=O)NCc3ccc4c(c3)OCO4)ccc12	inactive
Cc1cc2c(s1)c1cnn(Cc3ccc(Cl)cc3)c(=O)c1n2C	inactive
Cc1cc2cc(CNC(=S)Nc3ccc(OC(F)(F)F)cc3)ccc2n1C	inconclusive: 29.1 µM [falling, single point]
C=C(C)CN(CC)C(=O)CCc1nnc(CCCc2ccccc2)o1	inconclusive: 6.51 µM [activator, partial curve]
CCCCc1ccc(S(=O)(=O)N2CCN(C(=O)c3ccco3)CC2)cc1	inconclusive: 23.1 µM [falling, single point]
CCCCN1CCc2c([nH]c3ccccc23)C1=O	inconclusive: 10.3 µM [activator, partial curve]
CCCC(=O)Nc1ccccc1NC(=O)c1ccc(OCC)c(OCC)c1	inconclusive: 5.8 µM [activator, partial curve, poor fit]
Cc1ccc(SCC(=O)NC(=O)NCc2ccccc2)c(C)c1	inconclusive: 4.61 µM [activator, full curve, poor fit]
O=C(Nc1nc2n(n1)C(c1ccc(Cl)cc1)CC(c1ccc(Cl)cc1)N2)c1ccco1 (stereo not drawn)	inconclusive: 18.4 µM [falling, single point]
COc1ccc(OCC(=O)OCc2cc(=O)n3nc(C4CC4)sc3n2)cc1	inconclusive: 5.17 µM [activator, partial curve, poor fit]
CCOC(=O)c1c(C)[nH]c(C(=O)OCC(=O)N2CCN(S(=O)(=O)c3ccccc3)CC2)c1C	inconclusive: 20.6 µM [falling, partial curve]
O=C(CN1C(=O)NC2(CCCCCCC2)C1=O)Nc1ccc(Br)cc1	inconclusive: 5.8 µM [falling, partial curve, poor fit]
COC(/C=C/Nc1ccc(Cl)cc1)=C(C#N)C#N	inconclusive: 2.31 µM [activator, single point]
Cc1cc(C)cc(NC(=S)N2CCN(c3ccccn3)CC2)c1	inconclusive: 6.51 µM [activator, single point]
CC(=O)Nc1ccc(-c2csc(NC(=O)C3CCN(S(=O)(=O)c4cccs4)CC3)n2)cc1	inconclusive: 16.4 µM [falling, single point]
